We go through five targets from the supplement of paper PMC6411743.

The chains behind the UniProt entries cited, without tags or fusion partners. Where a name states a change or a piece, a line headed by the entry shows the natural chain unless it says otherwise.
UniProt Q8IYB8: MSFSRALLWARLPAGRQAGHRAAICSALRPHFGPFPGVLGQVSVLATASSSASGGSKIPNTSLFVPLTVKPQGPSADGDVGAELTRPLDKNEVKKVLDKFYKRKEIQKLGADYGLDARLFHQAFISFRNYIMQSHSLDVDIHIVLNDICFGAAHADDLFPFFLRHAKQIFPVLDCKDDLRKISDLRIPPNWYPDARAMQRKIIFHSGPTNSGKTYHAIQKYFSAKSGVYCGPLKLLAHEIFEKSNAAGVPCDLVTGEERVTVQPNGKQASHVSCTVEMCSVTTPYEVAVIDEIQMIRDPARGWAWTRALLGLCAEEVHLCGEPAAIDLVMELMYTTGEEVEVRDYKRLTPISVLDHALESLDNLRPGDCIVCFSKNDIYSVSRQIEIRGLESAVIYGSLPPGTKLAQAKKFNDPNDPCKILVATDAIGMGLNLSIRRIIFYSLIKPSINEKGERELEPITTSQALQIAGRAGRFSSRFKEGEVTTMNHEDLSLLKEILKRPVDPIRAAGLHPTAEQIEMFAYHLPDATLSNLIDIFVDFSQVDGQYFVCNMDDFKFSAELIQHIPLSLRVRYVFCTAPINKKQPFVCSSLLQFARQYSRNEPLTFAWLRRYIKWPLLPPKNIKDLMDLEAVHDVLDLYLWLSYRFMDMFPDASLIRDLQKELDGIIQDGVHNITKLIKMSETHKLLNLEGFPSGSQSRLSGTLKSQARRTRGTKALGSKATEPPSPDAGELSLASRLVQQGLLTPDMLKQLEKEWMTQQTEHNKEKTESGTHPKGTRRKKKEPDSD
UniProt Q8N1G2: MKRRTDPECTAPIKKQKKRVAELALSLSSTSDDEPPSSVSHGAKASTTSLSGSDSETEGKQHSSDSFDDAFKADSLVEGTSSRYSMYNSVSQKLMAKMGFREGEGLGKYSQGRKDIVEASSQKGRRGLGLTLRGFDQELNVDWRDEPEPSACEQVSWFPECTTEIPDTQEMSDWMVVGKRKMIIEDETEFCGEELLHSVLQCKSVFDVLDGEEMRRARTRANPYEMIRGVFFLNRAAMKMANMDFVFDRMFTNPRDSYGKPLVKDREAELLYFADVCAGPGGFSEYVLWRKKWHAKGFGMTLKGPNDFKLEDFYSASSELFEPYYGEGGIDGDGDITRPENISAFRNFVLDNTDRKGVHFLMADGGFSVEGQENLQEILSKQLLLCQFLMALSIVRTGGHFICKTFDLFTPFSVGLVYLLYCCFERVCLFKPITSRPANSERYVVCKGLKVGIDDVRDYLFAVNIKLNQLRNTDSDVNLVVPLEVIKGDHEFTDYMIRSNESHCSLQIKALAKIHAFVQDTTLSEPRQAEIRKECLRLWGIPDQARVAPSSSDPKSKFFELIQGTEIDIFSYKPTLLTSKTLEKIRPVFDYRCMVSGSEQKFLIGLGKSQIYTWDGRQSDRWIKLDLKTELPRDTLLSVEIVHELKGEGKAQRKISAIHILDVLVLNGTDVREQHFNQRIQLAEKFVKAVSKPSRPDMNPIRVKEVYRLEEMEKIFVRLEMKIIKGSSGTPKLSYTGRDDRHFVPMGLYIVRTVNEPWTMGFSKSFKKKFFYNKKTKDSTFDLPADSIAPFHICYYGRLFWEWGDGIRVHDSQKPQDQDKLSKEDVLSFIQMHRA
UniProt Q86WR0: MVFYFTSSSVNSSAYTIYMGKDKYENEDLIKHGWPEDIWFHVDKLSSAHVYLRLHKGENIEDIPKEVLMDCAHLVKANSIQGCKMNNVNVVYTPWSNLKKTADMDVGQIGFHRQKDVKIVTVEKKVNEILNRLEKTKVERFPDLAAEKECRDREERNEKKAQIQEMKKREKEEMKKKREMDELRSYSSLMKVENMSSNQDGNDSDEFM
UniProt Q86X10: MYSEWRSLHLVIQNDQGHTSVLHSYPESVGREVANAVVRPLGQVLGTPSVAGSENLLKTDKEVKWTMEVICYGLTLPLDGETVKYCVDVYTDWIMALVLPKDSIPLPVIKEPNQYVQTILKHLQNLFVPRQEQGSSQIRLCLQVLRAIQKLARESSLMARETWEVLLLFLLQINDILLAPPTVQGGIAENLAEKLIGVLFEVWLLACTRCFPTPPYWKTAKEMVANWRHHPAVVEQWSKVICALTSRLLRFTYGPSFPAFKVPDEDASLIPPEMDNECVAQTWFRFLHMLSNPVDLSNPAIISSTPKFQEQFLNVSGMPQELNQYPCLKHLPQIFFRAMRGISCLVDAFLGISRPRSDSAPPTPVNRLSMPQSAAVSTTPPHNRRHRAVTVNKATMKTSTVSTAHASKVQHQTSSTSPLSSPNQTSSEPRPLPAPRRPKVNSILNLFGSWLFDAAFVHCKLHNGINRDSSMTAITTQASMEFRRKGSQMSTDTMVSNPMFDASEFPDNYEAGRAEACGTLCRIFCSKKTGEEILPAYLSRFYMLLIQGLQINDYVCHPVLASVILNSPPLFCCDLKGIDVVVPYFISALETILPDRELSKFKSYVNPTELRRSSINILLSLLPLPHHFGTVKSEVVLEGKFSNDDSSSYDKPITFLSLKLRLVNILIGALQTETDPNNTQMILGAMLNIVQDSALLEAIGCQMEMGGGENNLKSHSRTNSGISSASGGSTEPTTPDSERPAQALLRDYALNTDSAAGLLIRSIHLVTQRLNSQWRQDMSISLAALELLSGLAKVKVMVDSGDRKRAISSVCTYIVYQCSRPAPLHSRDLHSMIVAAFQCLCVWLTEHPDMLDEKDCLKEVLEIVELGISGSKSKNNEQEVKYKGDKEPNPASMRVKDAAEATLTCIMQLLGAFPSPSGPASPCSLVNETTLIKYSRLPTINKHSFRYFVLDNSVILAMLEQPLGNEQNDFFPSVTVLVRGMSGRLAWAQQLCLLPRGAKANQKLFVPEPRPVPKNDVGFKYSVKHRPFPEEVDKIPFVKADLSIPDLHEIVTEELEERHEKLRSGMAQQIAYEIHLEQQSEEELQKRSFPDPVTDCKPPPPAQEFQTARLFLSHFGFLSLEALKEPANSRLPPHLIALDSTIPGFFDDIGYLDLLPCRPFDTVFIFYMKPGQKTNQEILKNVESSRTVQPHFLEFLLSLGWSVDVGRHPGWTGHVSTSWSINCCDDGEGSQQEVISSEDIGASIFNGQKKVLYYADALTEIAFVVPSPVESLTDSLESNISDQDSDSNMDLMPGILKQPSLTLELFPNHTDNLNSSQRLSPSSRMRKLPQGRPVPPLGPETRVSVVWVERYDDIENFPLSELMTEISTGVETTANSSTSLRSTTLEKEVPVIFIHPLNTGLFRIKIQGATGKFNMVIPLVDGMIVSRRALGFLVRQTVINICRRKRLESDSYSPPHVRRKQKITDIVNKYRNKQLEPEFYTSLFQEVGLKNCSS
UniProt Q8NB37: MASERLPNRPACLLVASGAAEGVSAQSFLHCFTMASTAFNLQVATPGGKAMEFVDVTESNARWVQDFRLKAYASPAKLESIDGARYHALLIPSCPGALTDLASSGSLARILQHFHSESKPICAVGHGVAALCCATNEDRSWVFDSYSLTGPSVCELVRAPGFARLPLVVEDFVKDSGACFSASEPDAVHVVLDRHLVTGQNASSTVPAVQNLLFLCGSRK

± gives the standard deviation of the averaged measurements. This is one part of the list.

Compound in the test: Nc1nc2c(ncn2[C@@H]2O[C@H](COP(=O)(O)OP(=O)(O)OP(=O)(O)O)[C@@H](O)[C@H]2O)c(=O)[nH]1 [guanosine triphosphate]
Description: NP40-soluble protein abundance relative to vehicle (solubility fold change) (ratio); higher = more soluble protein in presence of GTP. Here is the method:
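Solubility proteome profiling in Jurkat crude lysate. Lysate was treated with Mg-GTP (0.1-10 mM) for 10 min at room temperature and 3 min at 37 °C, then solubilised with 0.8% NP40 and benzonase, followed by ultracentrifugation. Proteins were quantified by TMT10 LC-MS/MS; the value is the NP40-soluble abundance relative to the NP40-processed vehicle, from 3 independent experiments.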

On to SUPV3L1 (UniProt Q8IYB8), for which the NP40-soluble protein abundance (concentration: 0.1mM) was 1.09 ± 0.021; the NP40-soluble protein abundance (concentration: 0.5mM) amounted to 1.09 ± 0.079; the NP40-soluble protein abundance (concentration: 1mM) stood at 0.99 ± 0.027; the NP40-soluble protein abundance (concentration: 2mM) turned out to be 0.98 ± 0.01; the NP40-soluble protein abundance (concentration: 4mM) is 0.997 ± 0.033; the NP40-soluble protein abundance (concentration: 6mM) was determined as 0.973 ± 0.026. In addition, the NP40-soluble protein abundance is, setting by setting: (concentration: 8mM) 0.99 ± 0.029; (concentration: 10mM) 0.92 ± 0.051.
Regarding UniProt Q8N1G2, the NP40-soluble protein abundance stood at 1.09 ± 0.11 (concentration: 0.1mM); 1.05 ± 0.076 (concentration: 0.5mM); 0.95 ± 0.048 (concentration: 1mM); 0.994 ± 0.071 (concentration: 2mM); 0.985 ± 0.064 (concentration: 4mM); 0.952 ± 0.035 (concentration: 6mM). Further, the NP40-soluble protein abundance is, setting by setting: (concentration: 8mM) 0.938 ± 0.06; (concentration: 10mM) 0.938 ± 0.062.
Take CCDC25 (UniProt Q86WR0): the NP40-soluble protein abundance was 0.954 ± 0.079 (concentration: 0.1mM); 0.939 ± 0.057 (concentration: 0.5mM); 0.892 ± 0.051 (concentration: 1mM); 0.842 ± 0.071 (concentration: 2mM); 0.855 ± 0.1 (concentration: 4mM); 0.842 ± 0.084 (concentration: 6mM). Further, the NP40-soluble protein abundance (concentration: 8mM) turned out to be 0.876 ± 0.059 and the NP40-soluble protein abundance (concentration: 10mM) is 0.863 ± 0.068.
For the target UniProt Q86X10 and related entries, the NP40-soluble protein abundance is, setting by setting: (concentration: 0.1mM) 1.07 ± 0.11; (concentration: 0.5mM) 1.12 ± 0.12; (concentration: 1mM) 1.08 ± 0.098; (concentration: 2mM) 1.12 ± 0.13; (concentration: 4mM) 1.12 ± 0.18; (concentration: 6mM) 1.08 ± 0.13. In addition, the NP40-soluble protein abundance is, setting by setting: (concentration: 8mM) 1.1 ± 0.14; (concentration: 10mM) 1.06 ± 0.11.
In the case of UniProt Q8NB37 and related entries, the NP40-soluble protein abundance by setting is: (concentration: 0.1mM) 0.992 ± 0.051; (concentration: 0.5mM) 0.938 ± 0.041; (concentration: 1mM) 0.981 ± 0.038; (concentration: 2mM) 0.941 ± 0.043; (concentration: 4mM) 0.981 ± 0.025; (concentration: 6mM) 0.924 ± 0.017. For the same target, the NP40-soluble protein abundance reads like this: (concentration: 8mM) 0.885 ± 0.021; (concentration: 10mM) 0.904 ± 0.031.
